Where “and” joins values, the source holds several entries; their conditions need not be identical. Equal entries are not always repeated. Out of some 360,000 compounds screened, about 7,500 (2.1%) were called active. The shares of active, inactive and inconclusive entries below differ from those in the screen. Calls follow the shape of the dose curve; as a rule, active = well fitted inhibition curve with a large enough effect; inconclusive = small, poorly fitted or top-dose-only effect, or effect the other way; inactive = flat fitted curve, though single readings scatter. A potency beside an inconclusive call is a rough fit, not a confirmed value.
assay: Nrf2 qHTS screen for inhibitors; details: A549 ARE-Fluc reporter, luciferase luminescence, 18-24 h; activity change, negative = inhibition: at 46 µM (top of the series); also: nearly all actives have a fitted effect of over 60% in size
Procedure, shortened: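 Quantitative HTS in A549 cells stably bearing an antioxidant response element-firefly luciferase construct. Inhibition of Nrf2-driven transcription was scored by luminescence after 18-24 h of compound exposure at 37 °C.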
% is scaled to controls: 0 for no effect and ±100 for the full control effect; potency is read from the fitted curve at half-maximal effect.

| SMILES | Potency | activity change, negative = inhibition |
| --- | --- | --- |
| O=C(Nc1nc2c(F)cccc2s1)c1ccco1 | inconclusive: 2.31 µM [activator, partial curve, poor fit] | – |
| Nc1c(N(CCC2=CCCCC2)C(=O)COc2ccc([N+](=O)[O-])cc2)c(=O)[nH]c(=O)n1Cc1ccccc1 | inconclusive: 20.6 µM [falling, partial curve, poor fit] | – |
| O=C(Nc1ccc(Cl)cc1)C1CCCCN1S(=O)(=O)c1ccccc1 (stereo not given) | inconclusive: 18.4 µM [falling, single point] | – |
| CCOC(=O)c1sc2ncnc(N3CCN(CC)CC3)c2c1C | inconclusive: 3.66 µM [activator, full curve, poor fit] | – |
| COc1ccccc1CNC(=O)CSc1nnc(C)c2c(C)n(-c3ccccc3)nc12 | inconclusive: 29.1 µM [falling, single point] | – |
| COc1cccc(NC(=O)/C=C/c2ccccc2[N+](=O)[O-])c1 | inconclusive: 10.3 µM [activator, partial curve, poor fit] | – |
| O=C(Nc1ccc2[nH]ccc2c1)c1ccccc1 | inconclusive: 18.4 µM [falling, single point] | – |
| CCOC(=O)c1c(NC(=O)CC)sc(C(=O)NC2CCCC2)c1C | inconclusive: 0.651 µM [activator, full curve, poor fit] | – |
| CC(Oc1ccc(Br)cc1Br)C(=O)Nc1cccnc1 (stereo not given) | inconclusive: 18.4 µM [falling, single point] | – |
| COc1ccccc1NC=C1C(=O)OC(C)(C)OC1=O | inconclusive: 8.2 µM [activator, partial curve] | – |
| Cc1ccccc1OCCCCn1nnc2sc3c(c2c1=O)CCC(C)C3 (stereo not given) | inactive | – |
| CCOC(=O)/C(=C/C=C1\Sc2cc(C)c(C)cc2N1CC)C(C)=O | inconclusive: 20.6 µM [falling, single point] | – |
| Cc1cccc(N2CCN(S(=O)(=O)c3ccc4c(c3)NC(=O)CS4)CC2)c1C | inconclusive: 16.4 µM [falling, single point] | – |
| CC1=C(C(=O)Nc2ccc(Cl)cc2)C(c2ccccc2)n2ncc(C(=O)Nc3ccccc3)c2N1 (stereo not given) | active: 16.4 µM | – |
| CCOc1ccc(NC2=CC(=O)CCC2)cc1 | inconclusive: 1.46 µM [activator, full curve, poor fit] | – |
| Cc1ccc(NC(=O)CN2C(=O)COc3ccc(S(=O)(=O)NC4CCCC4)cc32)cc1N(C)C | inactive | – |
| Cc1ccc(C)c(Cn2c(=O)c3c(nc4n3CCN4c3ccccc3)n(C)c2=O)c1 | inconclusive: 0.461 µM [falling, full curve, poor fit] | – |
| O=C(Nc1ccc(F)cc1)C1CCCN(S(=O)(=O)c2ccc3[nH]c(=O)ccc3c2)C1 (stereo not given) | inconclusive: 1.46 µM [falling, full curve] | – |
| O=C(CO/N=C/c1ccc(OC(F)F)cc1)NC1CCCCCC1 | inconclusive: 29.1 µM [falling, single point] | – |
| O=C(C[C@H]1C/C=C\CC[C@H](Cc2ccc(F)cc2)C(=O)O[C@@H](c2ccccc2)CNC1=O)N[C@@H](CO)Cc1ccccc1 | inactive | – |
| CC(=O)N1CCc2c(sc3c2c(=O)n(CCc2ccccc2)c(=O)n3Cc2ccccc2C)C1 | active: 18.4 µM | – |
| COc1ccc(NC(=O)CSc2nc(-c3cccc(C)c3)[nH]c2-c2ccccc2)cc1OC | active: 23.1 µM | – |

5 neighbouring entries from above, quoted:

| SMILES | Potency | activity change, negative = inhibition |
| --- | --- | --- |
| O=C(Nc1ccc2[nH]ccc2c1)c1ccccc1 | inconclusive: 18.4 µM [falling, single point] | – |
| CCOC(=O)c1c(NC(=O)CC)sc(C(=O)NC2CCCC2)c1C | inconclusive: 0.651 µM [activator, full curve, poor fit] | – |
| CC(Oc1ccc(Br)cc1Br)C(=O)Nc1cccnc1 (stereo not given) | inconclusive: 18.4 µM [falling, single point] | – |
| COc1ccccc1NC=C1C(=O)OC(C)(C)OC1=O | inconclusive: 8.2 µM [activator, partial curve] | – |
| Cc1ccccc1OCCCCn1nnc2sc3c(c2c1=O)CCC(C)C3 (stereo not given) | inactive | – |

Carrying on.

| SMILES | Potency | activity change, negative = inhibition |
| --- | --- | --- |
| Cc1ccc(C)c(-c2ccc(=O)n(Cc3c(F)cccc3Cl)n2)c1 | inconclusive: 29.1 µM [falling, single point] and inconclusive: 20.6 µM [falling, single point] | – |
| Cc1ccc(NC(=O)/C=C/c2ccc([N+](=O)[O-])s2)c(C)c1 | inconclusive: 4.11 µM [activator, single point] | – |
| CC(=O)N1CCc2cc(S(=O)(=O)NC(CC(C)C)C(=O)Nc3cc(C)cc(C)c3)ccc21 (stereo not given) | inconclusive: 29.1 µM [activator, single point] | – |
| COc1ccc(CC(=O)Nc2cccc(S(=O)(=O)N3CCCC3)c2)cc1OC | active: 4.61 µM | – |
| Clc1ccc(CN(CC2CCCO2)C(c2cccs2)c2nnnn2C2CCCC2)cc1 (stereo not given) | active: 11.6 µM | – |
| Cc1ccsc1/C=N/NC(=O)Nc1ccccc1 | inconclusive: 7.31 µM [activator, partial curve] | – |
| O=C(N/N=C/c1ccc2c(c1)OCO2)c1ccc(NC(=O)c2ccc(F)cc2)cc1 | inconclusive: 1.64 µM [falling, full curve, poor fit] | – |
| CC(C)(C)C(=O)Nc1nc(-c2ccccc2)ns1 | inconclusive: 6.51 µM [activator, single point] | – |
| O=C(CCN1CCCCC1)NNC(=S)NC(=O)c1ccc(Br)cc1 | inconclusive: 5.8 µM [activator, single point] | – |
| COc1ccccc1NC(=O)CN1CCN(CC(=O)Nc2ccc(C)c(F)c2)CC1 | inactive | – |
| COC(=O)/C(=C\Nc1ccc(Cl)cc1Cl)NC(=O)c1ccccc1 | inconclusive: 0.0651 µM [activator, full curve] | – |
| CCOc1ccc(Cn2c(=O)sc3ccccc32)cc1 | inconclusive: 18.4 µM [falling, single point] | – |
| COc1cccc(OC)c1C(=O)Nc1cccc(-c2ccc3nncn3n2)c1 | inactive | – |
| COc1ccccc1Oc1coc2c(CN3CCN(C)CC3)c(O)ccc2c1=O | inactive | – |
| Cc1ccccc1CNc1ccc(C(CC(N)=O)NC(=O)c2ccc(Br)cc2)cc1[N+](=O)[O-] (stereo not given) | inconclusive: 29.1 µM [falling, single point] | – |
| O=C(NCc1cccs1)C(=O)NCC(c1ccco1)N1CCN(c2ccccc2F)CC1 (stereo not given) | active: 20.6 µM | – |
| Cc1ccc(C(=O)OC(C)C(=O)NC2CCCCC2C)s1 (stereo not given) | inconclusive: 18.4 µM [falling, single point] | – |
| Cc1csc(NC(=O)Cc2ccc(F)cc2)n1 | inconclusive: 18.4 µM [activator, single point] | – |
| Cc1noc(/C=C/c2ccccn2)c1[N+](=O)[O-] | inconclusive: 23.1 µM [falling, partial curve, poor fit] | – |
| CC(=O)[C@@H]1[C@@H](C)N(Cc2ccccc2)C(=O)N[C@H]1c1cccc(C(F)(F)F)c1 | inconclusive: 20.6 µM [falling, single point] | – |
| CC(=O)N1CCc2cc(Br)cc(S(=O)(=O)CCC(=O)N3CCN(c4ccccc4Cl)CC3)c21 | – | inactive: -0.437% [at 9.27 µM] |
| CC(Sc1nc2ccccc2c(=O)n1CC1CCCO1)C(=O)N(C)c1ccccc1 (stereo not given) | inconclusive: 11.6 µM [falling, partial curve, poor fit] | – |

| SMILES | Potency | activity change, negative = inhibition |
| --- | --- | --- |
| Cc1ccc(CN(C(=O)COc2cc(C)c(Cl)c(C)c2)c2ccccn2)o1 | inconclusive: 23.1 µM [falling, partial curve] | – |
| COc1ccc(N2CCN(C(=O)c3ccc(COc4ccc([N+](=O)[O-])cc4)o3)CC2)cc1 | active: 23.1 µM | – |
| CCOc1ccc(-c2c(C)nn3c(C)c(C(=O)Nc4cc(C)cc(C)c4)cnc23)cc1OCC | inconclusive: 2.91 µM [activator, full curve] | – |
| O=C(CNC(=O)c1ccccc1F)OCc1nc2ccccc2s1 | inconclusive: 18.4 µM [activator, partial curve] | – |
| CC(C)c1noc(-c2ccccc2OCC(=O)Nc2cccc([N+](=O)[O-])c2)n1 | inconclusive: 25.9 µM [falling, single point] | – |
| O=C(CC1CC2CCC1C2)Nc1nc(-c2ccccn2)cs1 (stereo not given) | inconclusive: 29.1 µM [falling, single point] | – |
| CC(C)Sc1ncc(Cl)c(C(=O)Nc2ccc(S(=O)(=O)N3CCCCC3)cc2)n1 | inconclusive: 18.4 µM [falling, partial curve, poor fit] | – |
| Cc1cc(N2CCN(C(=O)c3cccs3)CC2)c(F)cc1[N+](=O)[O-] | inconclusive: 29.1 µM [falling, single point] | – |
| COc1ccc(-c2ccc(C(C)=O)cc2)cc1[C@H]1[C@H]2C=CC[C@@H](C)[C@@H]2C(=O)N1Cc1ccccc1 | inconclusive: 29.1 µM [falling, single point] | – |
| CS(=O)(=O)N(CC(=O)N/N=C/c1ccco1)c1ccccc1Br | inactive | – |
| COC(=O)CNc1c(-c2ccccn2)nc2ccc(Br)cn12 | inactive | – |
| O=Cc1cnc(N2CCCCC2)s1 | inconclusive: 16.4 µM [activator, partial curve] | – |
| O=C(NC1CCCCC1)c1ccc([N+](=O)[O-])o1 | inactive | – |
| COc1ccc(C)cc1NC(=O)C(Sc1nnc2ccccn12)c1ccccc1 (stereo not given) | inactive | – |
| COc1ccc(CSc2nc(N3CCOCC3)c3c(c2C#N)CC(C)(C)OC3)cc1 | inconclusive: 32.6 µM [falling, single point] | – |
| O=C(CN1C(=O)S/C(=C\c2cc(Cl)c(O)c(Cl)c2)C1=O)Nc1ccccc1 | inconclusive: 18.4 µM [falling, partial curve, poor fit] | – |
| Cc1noc(C)c1-c1ccc2ncnc(NCc3ccc(C(F)(F)F)cc3)c2c1 | inconclusive: 29.1 µM [falling, single point] | – |
| CC(C)c1nnc(NC(=O)C2CCCN2C(=O)Nc2ccc(F)cc2)s1 (stereo not given) | inconclusive: 6.51 µM [activator, partial curve, poor fit] | – |
| COCCCNC(=O)C(=O)Nc1cc2c3c(c1)CCC(=O)N3CCC2 | inconclusive: 8.2 µM [falling, partial curve] | – |
| CC(C)c1nn2c(=O)cc(COC(=O)c3ccco3)nc2s1 | inactive | – |
| COc1cc(Cl)ccc1OCc1cc(C(=O)N(C)CC2CCCCO2)no1 (stereo not given) | inconclusive: 1.64 µM [activator, full curve] | – |
